# From US20240173310A1, “PHARMACEUTICAL DOSAGE FORMS COMPRISING (4S)-24-CHLORO-4-ETHYL-73-FLUORO-35-METHOXY-32,5-DIOXO-14-(TRIFLUOROMETHYL)-32H-6-AZA-3(4,1)-PYRIDINA-1(1)-[1,2,3]TRIAZOLA-2(1,2),7(1)-DIBENZENAHEPTAPHANE-74-CARBOXAMIDE” (Bayer Aktiengesellschaft, priority 2021, published 2024)
# How the values were obtained:
# [1] = Exposure of active ingredient (I) in the rat after single oral dose; details: male rats, oral 3.00 mg/kg; relative to PEG solution of example 1-2 (100% reference)
# physchem = details: organic solvent or mixture, thermodynamic from solid
smiles,measurement,setting,value
"CC[C@@H](C(=O)Nc1ccc(C(N)=O)c(F)c1)n1cc(OC)c(-c2cc(Cl)ccc2-n2cc(C(F)(F)F)nn2)cc1=O [4-({(2S)-2-[4-{5-chloro-2-[4-(trifluoromethyl)-1H-1,2,3-triazol-1-yl]phenyl}-5-methoxy-2-oxopyridin-1(2H)-yl]butanoyl}amino)-2-fluorobenzamide]",F rel [%] animal,[1],11%
same,solubility,physchem; Solubility in a mixture of ethanol/acetone (1:1),~180 mg/mL
same,solubility,physchem; Solubility in acetone,~80 mg/mL
same,solubility,physchem; Solubility in ethanol,~35 mg/mL
